Values from PubChem BioAssay AID504808 (Drosophila RNAi Screening Center, 2011).
Assay: 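Genes whose loss lifts activity of an E2F-responsive reporter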 (primary screen). Cell system: Drosophila S2 cells. Knock-down reagent: long dsRNA against Drosophila genes. Detection: 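Dual luciferase plate measurements; E2F-specific signal taken as firefly over Renilla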. Direction: E2F firefly: higher = more E2F reporter activity; Renilla normaliser: higher = more normaliser reporter signal. Hit rule: 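Called active if the normalised E2F reporter went up by over 50%; the cutoff is arbitrary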.
The deposit covers about 21,000 reagents; below is a random part of those that have a named target and a result. Of all reagents, 18 (0.084%) were called active. 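Raw counts without plate normalisation, one of two replicates; the ratio scores behind the calls were not deposited.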 A number with no mark means an inactive call. A plus sign joins genes that one reagent is predicted to hit. Not stated in the record: the amount of reagent, the time to read-out.

| predicted target | PubChem SID | E2F firefly, rep 1 | Renilla normaliser, rep 1 |
| --- | --- | --- | --- |
| PAN3 | SID104187982 | 72743 | 3014 |
| Ugt303B3 | SID104193991 | 98727 | 5979 |
| CG13033 | SID104189705 | 1.68e5 | 8688 |
| or | SID104184121 | 1.09e5 | 4082 |
| Sap-r | SID104196641 | 89774 | 940 |
| BoYb | SID104191429 | 73781 | 3647 |
| gro | SID104196754 | 1951 | 1376 |
| CG3528 | SID104180403 | 1.68e5 | 5504 |
| CycY | SID104182212 | 75440 | 3936 |
| CG11164 | SID104199184 | 1.26e5 | 5980 |
| CG6000 | SID104195730 | 1.16e5 | 5613 |
| Nepl13 | SID104195424 | 1.19e5 | 6592 |
| bgcn | SID104183854 | 1.00e5 | 4454 |
| bgcn | SID104183855 | 95283 | 3998 |
| CG13589 | SID104184017 | 1.12e5 | 4296 |
| Argl + CG9515 | SID104183035 | 80898 | 3459 |
| Argl + CG9515 | SID104183037 | 1.47e5 | 4946 |
| TwdlD | SID104194530 | 1.16e5 | 5658 |
| fs(1)K10 | SID104198567 | 1882 | 944 |
| CG32036 | SID104190154 | 72954 | 4031 |
| CG5172 | SID104199728 | 2.20e5 | 5677 |
| snoRNA:Me28S-C3420b + RpS11 | SID104187188 | 97255 | 3815 |
| CG10283 | SID104181826 | 73789 | 3660 |
| egl | SID104184474 | 86325 | 3904 |
| Irk2 | SID104195361 | 85352 | 3914 |
| RasGAP1 | SID104190964 | 1.27e5 | 7804 |
| AANATL5 | SID104185786 | 1.38e5 | 4956 |
| Cpr49Ag | SID104186995 | 99824 | 4580 |
| GAA1 | SID104198059 | 8462 | 800 |
| CG30492 (retired record) + M7BP | SID104184845 | 1.42e5 | 5607 |
| CG30492 (retired record) + M7BP | SID104184846 | 1.29e5 | 5549 |
| CG30492 (retired record) + M7BP | SID104184847 | 1.44e5 | 5334 |
| CG30492 (retired record) + M7BP | SID104186493 | 1.35e5 | 4791 |
| CG30492 (retired record) + M7BP | SID104186608 | 1.38e5 | 4934 |
| CG5888 | SID104181721 | 79771 | 4012 |
| Khc-73 | SID104187241 | 75600 | 3280 |
| Jabba | SID104186313 | 80484 | 3790 |
| Fer3 | SID104195925 | 81645 | 4347 |
| Ugt317A1 | SID104184262 | 1.15e5 | 4778 |
| dom | SID104184350 | 1.39e5 (active) | 187 |
| dom | SID104184351 | 1.22e5 | 4323 |
| TfIIEbeta | SID104188493 | 92465 | 4269 |
| CG13021 | SID104197685 | 58981 | 3808 |
| Spn28B | SID104182774 | 1.46e5 | 5151 |
| CG13074 | SID104189749 | 1.74e5 | 8256 |

Reagents listed above marked active (1):
| predicted target | PubChem SID | E2F firefly, rep 1 | Renilla normaliser, rep 1 |
| --- | --- | --- | --- |
| dom | SID104184350 | 1.39e5 (active) | 187 |

More records follow.
| predicted target | PubChem SID | E2F firefly, rep 1 | Renilla normaliser, rep 1 |
| --- | --- | --- | --- |
| mRpL17 | SID104188142 | 1.05e5 | 4438 |
| TwdlV | SID104192018 | 1.53e5 | 6830 |
| CG17784 | SID104195060 | 1.07e5 | 6138 |
| CG6295 | SID104195804 | 1.14e5 | 6439 |
| CG13096 | SID104181990 | 1.27e5 | 4909 |
| Acsl | SID104187044 | 2261 | 240 |
| Tes | SID104186788 | 1.35e5 | 5806 |
| CG13287 | SID104189753 | 55883 | 3535 |
| Tmtc1 | SID104179939 | 1.32e5 | 5290 |
| Tmtc1 | SID104179943 | 1.13e5 | 5108 |
| Tmtc1 | SID104180106 | 1.68e5 | 5942 |
| Tmtc1 | SID104180203 | 1.71e5 | 5696 |
| CG5727 | SID104182674 | 78034 | 3178 |
| Ufd1 | SID104190399 | 82087 | 3772 |
| CG15376 (retired record) | SID104197838 | 1.24e5 | 5195 |
| CG4789 | SID104199710 | 2.37e5 | 6213 |
| Gss1 + Gss2 | SID104199800 | 1.55e5 | 6160 |
| CG18731 | SID104195169 | 1.40e5 | 6891 |
| CG16772 | SID104182308 | 92592 | 4032 |
| Osi7 | SID104191968 | 1.38e5 | 6505 |
| Nlg3 | SID104192269 | 52243 | 3928 |
| Nlg3 | SID104192316 | 1.21e5 | 5034 |
| Nlg3 | SID104192332 | 1.27e5 | 6200 |
| Nlg3 | SID104192366 | 1.25e5 | 6531 |
| CG4830 | SID104195449 | 1.45e5 | 6905 |
| Ugt37A1 | SID104181906 | 98762 | 3749 |
| NAAT1 | SID104198092 | 1.10e5 | 6716 |
| DIP-gamma | SID104194665 | 1983 | 1048 |
| Ctl2 | SID104194215 | 1861 | 1104 |
| pim | SID104183383 | 69643 | 4203 |
| CG33514 | SID104188263 | 1.04e5 | 3710 |
| CG33514 | SID104188264 | 84298 | 3486 |
| PGRP-SB2 | SID104190884 | 1.61e5 | 7801 |
| Alp10 | SID104189541 | 95728 | 3650 |
| ab | SID104183270 | 1.41e5 | 3975 |
| CG33301 | SID104182570 | 1.43e5 | 5304 |
| CG13066 | SID104189741 | 1.69e5 | 8355 |
| CG31100 | SID104194245 | 1.41e5 | 7092 |
| CG31100 | SID104194247 | 1.27e5 | 6412 |
